Primary screen of a compound library

Toxoplasma: 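Assay of Toxoplasma gondii numbers, read through their beta-galactosidase reporter with a colour substrate. Concentration: 10 µM. The record gives no direction; the compounds picked for IC50 retests had high values, so higher reads as fewer parasites. Size under these conditions: about 67,000 compounds, about 260 of them at 50% or above in at least one test.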
T. brucei: 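Whole-parasite assay of Trypanosoma brucei over 72 hours; the read-out is not stated. Compounds at 30 µM. The record gives no direction; compounds that gave an IC50 in retests scored well above the rest, so higher reads as stronger inhibition. Values scatter widely below zero; nearly all retest evidence comes from the higher of the two concentrations used. Of about 64,000 compounds tested this way, about 940 (1.5%) reached 50% or more in at least one test.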

Each number is a percent effect as filed. How 0% and 100% were set is not recorded. Most values in the screen are low, and negative values occur. This is an unselected part of the compounds tested. A dash means the value is not listed here; it may have been measured.

| compound | Toxoplasma | T. brucei |
|---|---|---|
| `CC(=O)Nc1cc2c(cc1C)OCO2` | 6.58 | -15.34 |
| `CCN1C(=O)CCC12CCCN(Cc1nccs1)C2.O=C(O)C(F)(F)F` (stereo unspecified) | -1.265 | -25.22 |
| `CCc1nc(C2CCCN2CC(=O)Nc2cc(C)on2)no1` (stereo unspecified) | -4.267 | -22.19 |
| `Cc1ccccc1Cn1cnc2oc(C)c(C(=O)O)c2c1=O` | 3.643 | -57.58 |
| `COc1cc(CCC(=O)NC(C)C(=O)O)ccc1OCC(F)(F)F` (stereo unspecified) | 5.311 | 13.21 |
| `CCc1nc(CN2CCCN(C(=O)c3cc(C)on3)CC2)cs1` | 1.908 | 1.687 |
| `Cc1cc(C)cc(N(C)S(=O)(=O)c2cc3c(c(C(=O)O)c2)OCCO3)c1` | -2.516 | 36.93 |
| `COc1ccccc1CC(=O)NC(C)c1nc2cccnc2n1C(C)C` (stereo unspecified) | 16.97 | 6.446 |
| `O=C(O)C(F)(F)F.[H][C@@]12OCCN(C(=O)c3cccn3C)[C@@]1([H])CC[C@H]2OCc1cccnc1` | 12 | -0.008719 |
| `Cc1occc1C(=O)N1CC(C(=O)N2CCOCC2)C2(CCOCC2)C1` (stereo unspecified) | 1.693 | -31.19 |
| `CCCc1nc(C)c(C(=O)NC2CCN(CC(N)=O)CC2)s1` | 0.5165 | 5.913 |
| `CN(C)Cc1nnc(C2CCN(C(=O)CCc3cccs3)CC2)n1C` | 0 | 13.44 |
| `COc1ccccc1N1CCN(C(=O)Cn2nc(C)cc2C)CC1(C)C` | -4.39 | -8.541 |
| `CSCCCN1CCn2nc(CNC(=O)N(C)C)cc2C1` | -33.5 | -23.37 |
| `Cc1ccc(C(=O)N2CCC3(CC2)CC(c2ccccc2)C(=O)N3)cn1.O=C(O)C(F)(F)F` (stereo unspecified) | 2.244 | -2.742 |
| `CC1CCC(N2CCC(NS(=O)(=O)CCOC(C)C)CC2)CC1` (stereo unspecified) | 7.336 | -35.86 |
| `CCS(=O)(=O)NCCCNc1cc(N2CCCC2CO)ncn1` (stereo unspecified) | -13.42 | -32.29 |
| `Cc1cnn(C2CCCN(C(=O)c3c(C)oc4nc[nH]c(=O)c34)C2)c1` (stereo unspecified) | -1.011 | -30.61 |
| `Cc1ccnc(NC(=O)C(C)Cn2cncn2)c1` (stereo unspecified) | -15.7 | -57.6 |
| `O=C(O)C(F)(F)F.[H][C@@]12CN(c3cc(OC)ncn3)C[C@H](C(=O)NCC3CC3)[C@]1([H])CCO2` | 13.31 | -4.997 |
| `COCCNc1nc(C)nc2c1CCN(C[C@H]1CC[C@@H](N)CC1)CC2` | -15.57 | -6.879 |
| `[H][C@@]12C[C@H](C(=O)NCc3ccco3)CN(C(=O)c3ccco3)[C@]1([H])CCO2` | 0.7479 | -26.3 |
| `COC(=O)C(C)(C)NC(=O)c1cc(COc2ccccc2OC)[nH]n1` | -10.13 | 9.058 |
| `Cc1cccc(N2CCN(c3ccn4c(=O)[nH]nc4n3)CC2)c1C` | -17.63 | -14.28 |
| `O=C(Cn1cc(-c2ccccc2)ncc1=O)NC1CCCCC1` | 8.536 | 7.764 |
| `CCc1ncc(CN2CCC(Oc3ccccc3OC)CC2)cn1` | -7.929 | 7.213 |
| `CCc1nc(C2CCCN2C(=O)CCc2ccc3c(c2)OCO3)no1` (stereo unspecified) | 3.446 | 14.92 |
| `O=S1(=O)NC2(CCCN(CCc3ccccc3)C2)COc2ccccc21` (stereo unspecified) | 4.691 | - |
| `CNS(=O)(=O)c1cccc(CNc2nccc(C(F)(F)F)n2)c1` | -6.146 | -36.16 |
| `NC(=O)Nc1ccc(C(=O)NCCn2cccc2)cc1` | -18.19 | -4.935 |
| `CN(Cc1nnc2n1CCC2)C(=O)Cc1ccc2c(c1)CCC2` | 3.01 | -25.35 |
| `O=C(c1csc2nc(-c3ccc(Cl)cc3)cn12)N1CCCC(CO)C1` (stereo unspecified) | 2.206 | -27.9 |
| `CCCc1nc(C(=O)NCc2cccnc2-n2cncn2)cs1` | -8.951 | -342.9 |
| `CCOc1cc(CNCc2cnc(C)cn2)c(Cl)cc1OC(C)C` | 9.26 | -6.031 |
| `Cc1cn[nH]c1C1COCCN1C(=O)c1cc(F)ccc1F` (stereo unspecified) | 12.38 | 2.751 |
| `O=C(Cc1ccc(F)cc1)NCCNS(=O)(=O)C1CCCC1` | -0.1602 | -40.4 |
| `O=C(O)C(F)(F)F.O=C1COC2(CCN(Cc3ccco3)CC2)CN1` | 19.18 | -41.7 |
| `COc1ccc(-c2nc(CN3CCc4cnc(C)nc4C3)no2)cc1` | -5.243 | 15.33 |
| `CN(Cc1cc(-c2ccccc2)no1)C(=O)CNS(C)(=O)=O` | 2.497 | -20.79 |
| `COC(=O)[C@H](C)NC(=O)c1nc(C2CC2)n(-c2ccccc2Cl)n1` | -7.328 | - |

The last 2 entries again:

{"compound": "CN(Cc1cc(-c2ccccc2)no1)C(=O)CNS(C)(=O)=O", "Toxoplasma": 2.497, "T. brucei": -20.79}
{"compound": "COC(=O)[C@H](C)NC(=O)c1nc(C2CC2)n(-c2ccccc2Cl)n1", "Toxoplasma": -7.328}

From ChEMBL document CHEMBL3988442, “University of Dundee, Small-Polar-MMV Screening Library” (2021).